Results on one molecule are retold here after patent US20250129169A1 (Stanford University, published 2025).

Amino acid sequences for entries named in this document (tags omitted). A change or cut given only in a name is not applied to a line headed by its entry.
UniProt P31785: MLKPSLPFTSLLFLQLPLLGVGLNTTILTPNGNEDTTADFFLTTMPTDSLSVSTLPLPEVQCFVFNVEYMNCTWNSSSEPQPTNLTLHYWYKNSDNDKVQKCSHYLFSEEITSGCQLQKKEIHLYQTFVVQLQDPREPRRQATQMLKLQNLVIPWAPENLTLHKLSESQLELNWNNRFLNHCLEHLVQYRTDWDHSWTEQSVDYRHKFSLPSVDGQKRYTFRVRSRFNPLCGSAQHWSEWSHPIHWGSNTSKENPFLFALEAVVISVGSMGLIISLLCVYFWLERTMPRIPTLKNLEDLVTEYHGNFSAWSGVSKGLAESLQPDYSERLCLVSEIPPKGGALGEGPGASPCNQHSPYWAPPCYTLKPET

The assay addresses hγc extracellular domain (a.a. 55-254) (human) (UniProt P31785). As to the kind of experiment: co-crystal structure of the complex, 2.6 Å.

Results are given in words; binding and its absence hold for the method and conditions named. Binding can be weak; no strength is given.

B1: γc-VHH6 (VHH)
VHH: QVQLQESGGGSVQAGGSLRLSCAASGYTYRDYYMGWFRQAPGREREGVASIYTRGSREGSTRYSSSVEGRFTITLDTAKNTLYLQMNSLKPEDTAMYYCAADDRTWLPRVQLGGPRENEYNYWGQGTQVTVSS
notes: also called γC nanobody clone 6
Turning to B1, the binding result is recorded as “binds”.
